# Test results reported in paper PMC6389962 (Nature Communications, 2019).
# Assay: general procedure: Fmoc solid-phase peptide synthesis; Sieber resin; PyBOP/DIEA
# Conditions: whole synthesis, scale 0.1 mmol
substance,measurement,value
PEPTIDE1{H.G.E.G.T.F.T.S.D.V.S.S.Y.L.E.G.Q.A.A.K.E.F.I.A.W.L.V.K.G.R.G.[am]}$$$$V2.0,isolated mass,6.1 mg
same,isolated yield,1.8%

# HELM strings list residues between dots; [ac] is acetyl, [am] amide, other brackets name non-standard units.
